Here are results for 40 molecules from PubChem BioAssay AID493014 (National Center for Advancing Translational Sciences (NCATS), 2011).

The assay can be described thus: qHTS Assay to Find Inhibitors of Chronic Active B-Cell Receptor Signaling. Particulars: ABC-DLBCL IkBa-CBG/CBR reporter, luminescence ratio (green luciferase fused to IkBa over red control in TMD8 lymphoma cells), 4 h. The method, boiled down:
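Compounds up to 46 uM were incubated four hours with TMD8 cells whose green CBG68 luciferase is fused to IkappaBalpha; red CBR luminescence normalised the signal, and concentration-effect curves were fitted to fusion, red and ratio data.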
(qHTS replaces the single test concentration by a dilution series.)

[1] abbreviates: measured here: CBR red luminescence, cell number.
Setting [2] is: measured here: IkBa-CBG green luminescence.

This is one part of the list. Shown are side measurements of this screen, not its main read-out; they come without a call. Most of these compounds were active or inconclusive in the main read-out, so they are no random draw. Potencies come from curve fits of mixed quality, noted in brackets.

Regarding `CCOC(=O)c1ccc2ncc(C(=O)OCC)c(NCc3ccco3)c2c1`, the AC50 – broadly, the midpoint of the concentration-response curve, whichever way the signal moves – under setting [1] was 25.1 µM [falling, single point].
The same measure, in the same setting: the result for `Cc1cc(C(C)(C)C)cc(C)c1C[n+]1ccc2ccccc2c1` reads 22.4 µM [falling, partial curve, poor fit].
`COc1ccc(C(=O)OCC(=O)Nc2nnc(-c3ccccc3)o2)cc1`: the half-maximal activity concentration (AC50) under setting [2] is 35.5 µM [falling, single point].
In the case of `CCn1c(SC(C)C)nnc1-c1c[nH]c2ccccc12`, the AC50 under setting [1] was 4.61 µM [rising, full curve, poor fit].
For `Nc1ccc(-c2nc3ccc(N)cc3o2)cc1`, the AC50 under setting [1] was 29.1 µM [falling, single point].
As for `O=C(/C=C/c1ccc([N+](=O)[O-])cc1)NCc1cccs1`, the AC50 under setting [1] was 23.1 µM [falling, single point].
The same measure, in the same setting: the result for `NC(=S)n1[nH]c(-c2ccc([N+](=O)[O-])cc2)c(N=Nc2cccc([N+](=O)[O-])c2)c1=O` reads 3.98 µM [rising, partial curve]; that for `COC(=O)c1ccc(CSc2ncnc3ccccc23)o1`, 0.731 µM [rising, full curve, poor fit].
As to `CCCN(CCC)S(=O)(=O)c1ccc2c(c1)N(CC(=O)NCc1ccc(F)cc1Cl)C(=O)CS2`, under setting [2], the AC50 is 17.8 µM [rising, partial curve, poor fit].
Regarding `O=C(C1CCN(c2nc(-c3ccccc3)nc3c2CCC3)CC1)N1CCC(O)CC1`, under setting [1], the AC50 was 15.8 µM [falling, single point].
As for `CSc1ccc(C2=CC(=O)C[C@H](c3ccc(F)cc3)C2)cc1`, the AC50 under setting [1] was 29.1 µM [rising, single point].
The same measure, in the same setting: the value for `Cn1cccc1/C=N/NC(=O)c1cccnc1` was 29.1 µM [falling, single point].
Same read-out and setting: the value for `O=C(Nc1cccn2ncnc12)C(Cl)Cl` was 22.4 µM [falling, single point]; that for `COC(=O)c1c(NC(=O)CN2C(=O)NC(CCc3ccccc3)C2=O)sc2c1CCCCC2` (centres undefined) was 0.13 µM [falling, full curve, poor fit]; that for `COc1cccc(C(=O)c2cc3cc(Cl)ccc3[nH]2)c1` was 2.82 µM [rising, full curve].
Regarding `O=C(Nc1cccc(-c2csc(Nc3ccccc3)n2)c1)c1ccccc1`, the AC50 under setting [1] was 11.2 µM [falling, partial curve].
Regarding `Cc1ccnc(NC(=S)NC(=O)c2cccs2)c1`, the half-maximal activity concentration (AC50) runs as follows: under setting [1], 14.6 µM [falling, partial curve]; under setting [2], 23.1 µM [falling, single point].
Take `O=C(O)C(Cc1ccc(Cl)cc1)Sc1nc2ccccc2[nH]1` (centres undefined): under setting [1], the AC50 is 3.55 µM [rising, single point].
In the case of `Cc1ccc(-c2n[nH]c3c2C(c2cccc(O)c2)N(c2ccc(C(=O)O)cc2)C3=O)cc1` (centres undefined), under setting [1], the AC50 was 14.1 µM [falling, partial curve, poor fit].
The same measure, in the same setting: the value for `COC(=O)c1cc(C(=O)OCC(=O)NC(=O)NCc2ccccc2)cc([N+](=O)[O-])c1` was 25.9 µM [rising, single point]; that for `Cc1ccccc1OCC(=O)NNC(=O)C1CCN(c2ncnc3sc(C)c(C)c23)CC1` was 4.11 µM [rising, partial curve, poor fit].
For the molecule `Cn1cc(CN2CCCC(C(=O)c3cccs3)C2)c(-c2cccc(Cl)c2)n1` (centres undefined), the AC50 under setting [1] was 0.631 µM [rising, full curve, poor fit].
With `O=[N+]([O-])c1cccnc1N1CCN(Cc2ccc3c(c2)OCO3)CC1`, under setting [1], the AC50 is 6.31 µM [rising, full curve, poor fit].
Take `CCCCN(C(=O)c1c(C)[nH]c(C(=O)OCC)c1C)c1ccccc1`: the concentration at half-maximal activity (AC50) under setting [1] is 10 µM [falling, partial curve].
For `COC(=O)CC1=NN(c2ccc(OC)cc2)C(=O)C1`, the AC50 under setting [1] is 28.2 µM [falling, single point].
Turning to `CCCN=C1CC(C)(C)CC(=O)/C1=C(/O)CCCN1C(=O)c2ccccc2C1=O`, the AC50 under setting [1] was 2.24 µM [rising, full curve, poor fit].
With `O=C(Nc1cc(Cl)ccc1N1CCOCC1)c1ccc(N2CCCC2=O)cc1`, the AC50 under setting [1] was 10.3 µM [falling, partial curve, poor fit].
Turning to `Cc1ccc2sc(NNC(=O)c3ccc4c(c3)OCCO4)nc2c1C`, the half-maximal activity concentration (AC50) under setting [1] was 16.4 µM [falling, partial curve, poor fit].
In the case of `COc1ccc(NC(=O)CCCC(=O)OCC(F)(F)C(F)F)cc1`, under setting [1], the AC50 is 29.1 µM [rising, single point].
Consider `Cc1ccc(-c2nc3ccccc3[nH]c2=O)cc1`, for which the half-maximal activity concentration (AC50) under setting [1] was 0.708 µM [rising, full curve, poor fit].
On to `CCOC(=O)c1ccc(N2C(=O)c3n[nH]c(-c4ccco4)c3C2c2ccc([N+](=O)[O-])cc2)cc1` (centres undefined), for which the half-maximal activity concentration (AC50) by setting is: under setting [1], 29.1 µM [falling, single point]; under setting [2], 32.6 µM [rising, partial curve, poor fit].
In the case of `COc1cccc2c1c(NC(=O)Nc1ccc(F)cc1F)nn2C`, under setting [1], the AC50 was 0.794 µM [falling, full curve, poor fit].
Still for that read-out and setting: the result for `CN(CC(=O)Nc1c(Cl)cccc1Cl)C(=O)CCC(=O)c1ccccc1` reads 29.1 µM [rising, single point]; that for `Cc1nn(-c2ccccc2)c(Cl)c1/C=N/NC(=O)c1ccn[nH]1`, 7.08 µM [falling, partial curve, poor fit]; that for `N=c1c2c3c(sc2ncn1Nc1ccccc1)CCC3`, 35.5 µM [falling, single point].
`O=C(CSc1cccc[n+]1[O-])c1ccc(Cl)cc1`: the AC50 was 7.08 µM [falling, full curve] under setting [1] and 3.16 µM [falling, full curve] under setting [2].
Take `Oc1ccc2c(c1)C1CCCC1(N1CCOCC1)O2` (centres undefined): the concentration at half-maximal activity (AC50) under setting [1] is 4.61 µM [falling, full curve, poor fit].
Consider `Cn1nnnc1Sc1ncnc2scc(-c3ccc(Cl)cc3)c12`, for which the half-maximal activity concentration (AC50) by setting is: under setting [1], 4.11 µM [falling, single point]; under setting [2], 29.1 µM [falling, single point].
Consider `CCn1c2ccccc2c2cc(N)ccc21`, for which, under setting [1], the AC50 was 35.5 µM [falling, single point].
`CC(C)(C)c1ccc(C(=O)Nc2c3c(nn2C(C)(C)C)CS(=O)(=O)C3)cc1`: under setting [1], the concentration at half-maximal activity (AC50) was 7.94 µM [rising, partial curve, poor fit].
